Measurements reported in PMC5725494, “Cell cycle-dependent phosphorylation regulates RECQL4 pathway choice and ubiquitination in DNA double-strand break repair”.
These are yes or no findings as the source states them, for the method shown. In cells and extracts the contact can be indirect. Here binding means that the protein was enriched with, or labelled near, the bait; the list need not be complete. Where a sequence is shown, tags or fusion partners need not be part of it.

Sequences of proteins named here, by UniProt entry; tags and fusion partners are left off.
UniProt Q13619: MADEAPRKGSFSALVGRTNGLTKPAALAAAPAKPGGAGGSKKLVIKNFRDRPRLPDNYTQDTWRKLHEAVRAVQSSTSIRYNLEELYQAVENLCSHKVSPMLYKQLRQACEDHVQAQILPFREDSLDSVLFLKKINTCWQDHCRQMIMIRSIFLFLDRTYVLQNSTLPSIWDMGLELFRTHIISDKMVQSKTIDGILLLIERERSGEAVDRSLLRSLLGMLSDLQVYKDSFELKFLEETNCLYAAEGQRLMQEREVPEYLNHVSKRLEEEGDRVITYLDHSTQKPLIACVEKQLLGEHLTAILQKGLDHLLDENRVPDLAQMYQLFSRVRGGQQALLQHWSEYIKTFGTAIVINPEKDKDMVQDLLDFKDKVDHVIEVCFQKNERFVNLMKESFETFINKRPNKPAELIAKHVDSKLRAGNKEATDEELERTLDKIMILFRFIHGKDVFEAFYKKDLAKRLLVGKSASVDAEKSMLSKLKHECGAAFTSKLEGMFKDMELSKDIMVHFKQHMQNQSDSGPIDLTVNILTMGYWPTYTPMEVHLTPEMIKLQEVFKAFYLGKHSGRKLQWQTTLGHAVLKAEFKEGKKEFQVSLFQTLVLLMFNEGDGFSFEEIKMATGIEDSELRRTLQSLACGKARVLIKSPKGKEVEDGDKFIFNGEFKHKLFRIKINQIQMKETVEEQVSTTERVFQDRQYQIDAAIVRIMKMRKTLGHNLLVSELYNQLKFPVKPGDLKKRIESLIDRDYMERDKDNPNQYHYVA
UniProt Q16531: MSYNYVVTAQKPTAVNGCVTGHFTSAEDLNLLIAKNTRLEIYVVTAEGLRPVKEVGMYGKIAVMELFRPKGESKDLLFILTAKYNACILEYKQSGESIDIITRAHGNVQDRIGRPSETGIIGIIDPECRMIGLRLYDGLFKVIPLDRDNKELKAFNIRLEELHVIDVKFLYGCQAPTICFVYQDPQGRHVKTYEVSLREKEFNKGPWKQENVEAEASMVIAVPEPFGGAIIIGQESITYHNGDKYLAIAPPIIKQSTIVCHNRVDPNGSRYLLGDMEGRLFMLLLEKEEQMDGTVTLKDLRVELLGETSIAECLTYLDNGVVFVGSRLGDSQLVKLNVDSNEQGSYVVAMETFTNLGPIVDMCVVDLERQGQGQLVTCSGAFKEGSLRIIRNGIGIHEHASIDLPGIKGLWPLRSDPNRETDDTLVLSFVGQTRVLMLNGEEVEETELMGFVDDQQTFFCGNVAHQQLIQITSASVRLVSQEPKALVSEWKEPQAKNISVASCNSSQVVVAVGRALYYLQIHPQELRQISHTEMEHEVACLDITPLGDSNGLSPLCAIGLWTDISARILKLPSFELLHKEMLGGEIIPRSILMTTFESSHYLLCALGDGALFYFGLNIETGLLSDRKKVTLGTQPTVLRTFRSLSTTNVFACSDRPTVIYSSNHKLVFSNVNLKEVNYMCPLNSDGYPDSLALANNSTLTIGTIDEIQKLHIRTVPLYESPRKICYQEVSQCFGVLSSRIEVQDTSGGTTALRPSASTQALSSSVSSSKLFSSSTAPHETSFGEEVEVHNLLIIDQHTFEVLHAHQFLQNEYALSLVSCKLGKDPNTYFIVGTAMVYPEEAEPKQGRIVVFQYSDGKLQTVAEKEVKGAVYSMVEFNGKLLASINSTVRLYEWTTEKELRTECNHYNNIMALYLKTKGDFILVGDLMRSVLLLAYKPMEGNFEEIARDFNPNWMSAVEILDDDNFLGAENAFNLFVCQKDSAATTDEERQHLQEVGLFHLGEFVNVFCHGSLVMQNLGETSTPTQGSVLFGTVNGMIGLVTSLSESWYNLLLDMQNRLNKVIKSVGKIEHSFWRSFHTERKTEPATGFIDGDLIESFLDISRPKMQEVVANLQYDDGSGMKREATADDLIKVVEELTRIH
UniProt P50750: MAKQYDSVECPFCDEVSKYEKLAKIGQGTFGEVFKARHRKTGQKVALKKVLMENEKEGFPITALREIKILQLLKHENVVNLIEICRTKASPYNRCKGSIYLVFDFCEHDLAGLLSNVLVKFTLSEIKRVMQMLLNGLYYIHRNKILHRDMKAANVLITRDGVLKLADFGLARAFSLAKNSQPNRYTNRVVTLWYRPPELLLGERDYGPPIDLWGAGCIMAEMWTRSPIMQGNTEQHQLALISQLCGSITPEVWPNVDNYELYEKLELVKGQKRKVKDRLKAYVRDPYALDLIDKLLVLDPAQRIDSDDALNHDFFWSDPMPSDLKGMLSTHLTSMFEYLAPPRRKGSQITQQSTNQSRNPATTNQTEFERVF

Molecular target: T1, GFP-tagged RECQL4 (wild type) (human) (UniProt O94761)
T1 sequence: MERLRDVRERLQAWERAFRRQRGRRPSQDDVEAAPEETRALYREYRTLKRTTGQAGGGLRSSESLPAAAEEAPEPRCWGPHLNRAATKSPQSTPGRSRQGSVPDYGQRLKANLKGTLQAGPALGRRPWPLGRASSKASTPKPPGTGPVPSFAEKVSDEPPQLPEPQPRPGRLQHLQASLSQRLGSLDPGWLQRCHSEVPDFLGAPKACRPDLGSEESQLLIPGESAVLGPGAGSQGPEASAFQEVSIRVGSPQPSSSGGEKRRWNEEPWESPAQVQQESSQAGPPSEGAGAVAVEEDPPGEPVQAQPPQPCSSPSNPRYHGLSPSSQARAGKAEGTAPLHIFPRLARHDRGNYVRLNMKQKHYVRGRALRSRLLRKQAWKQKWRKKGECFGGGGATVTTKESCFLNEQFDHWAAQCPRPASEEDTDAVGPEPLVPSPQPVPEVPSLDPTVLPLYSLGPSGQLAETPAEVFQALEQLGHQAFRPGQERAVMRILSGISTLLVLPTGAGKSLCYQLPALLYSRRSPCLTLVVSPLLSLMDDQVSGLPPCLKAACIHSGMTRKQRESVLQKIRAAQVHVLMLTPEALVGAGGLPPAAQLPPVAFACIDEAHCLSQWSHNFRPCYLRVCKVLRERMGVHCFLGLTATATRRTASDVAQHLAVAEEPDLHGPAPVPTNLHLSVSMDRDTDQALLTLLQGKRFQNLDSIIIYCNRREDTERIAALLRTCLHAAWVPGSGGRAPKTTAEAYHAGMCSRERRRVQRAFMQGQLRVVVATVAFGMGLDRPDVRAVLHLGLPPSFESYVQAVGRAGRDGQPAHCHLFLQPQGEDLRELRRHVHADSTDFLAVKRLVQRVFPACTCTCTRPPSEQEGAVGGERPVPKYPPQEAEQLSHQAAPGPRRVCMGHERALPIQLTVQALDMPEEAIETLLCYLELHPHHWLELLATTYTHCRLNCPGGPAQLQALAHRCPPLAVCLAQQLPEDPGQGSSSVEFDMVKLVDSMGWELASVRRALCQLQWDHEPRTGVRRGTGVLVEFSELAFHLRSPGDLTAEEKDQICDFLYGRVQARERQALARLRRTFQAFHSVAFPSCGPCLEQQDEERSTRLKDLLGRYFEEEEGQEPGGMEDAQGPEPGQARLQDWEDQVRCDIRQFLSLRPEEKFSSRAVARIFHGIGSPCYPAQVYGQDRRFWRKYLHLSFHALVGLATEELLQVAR
Assay: affinity purification with mass spectrometry; GFP-TRAP beads on lysate of HEK293T cells expressing GFP or GFP-tagged RECQL4, with Benzonase; proteins eluted, precipitated and analysed by mass spectrometry

Row | binding | Substance
1 | binds | CUL4A (from UniProt Q13619 1-759)
2 | binds | DDB1 (from UniProt Q16531 1-1140)
3 | binds | CDK9 (from UniProt P50750 1-372) (enzyme)
